The whole screen tested about 31,000 sequences, of which about 1,400 (4.5%) were called active.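 The calls were made as follows: active = median seed-adjusted z-score above 1 or below -1; inactive = the rest.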 The list shows a part of the results.

The assay can be described thus: Novel Modifiers of Survival Motor Neuron (SMN) Protein: Gene Identification via Genome-wide siRNA Screen.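 Also: luminescence tracks full-length SMN protein made from the SMN2 reporter.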 As to conditions: HEK293T SMN2-luciferase reporter, siRNA knockdown, 72 h; actives lie on both sides. A digest of the protocol: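 HEK293T cells stably carrying an SMN2 promoter/splicing cassette–luciferase reporter were reverse-transfected with 1 pmol siRNA per well (druggable-genome library, 3 siRNAs per gene) and grown 72 h at 37 °C. Luminescence, normalized to negative-control siRNA and log10-transformed, was scored as MAD.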
(In general: A reporter such as luciferase makes a cellular process visible.)
Regarding GGAAAGUCUGAGACCAUAATT against GPR111, the median seed-adjusted z-score is inactive: 0.

For UCCUGUUCGUGACAAGUGATT against JMJD3, the median seed-adjusted z-score was inactive: 0.871.

Take GGAUUCAAAUAGCAGUCAATT against TNFRSF19: the median seed-adjusted z-score is inactive: -0.672.

Consider CAACGAGACUUAUCGAGAUTT against RBM6, for which the median seed-adjusted z-score was inactive: 0.193.

As for GAAAAGAGGUACAAAUCUATT against FDPS, the median seed-adjusted z-score is inactive: 0.0115.

In the case of AAGUCUUCCCGGACAAAAUTT against CSTA, the median seed-adjusted z-score is inactive: -0.351.

As for GUGUUUGAUAUACAGAGGATT against RABL2A, the median seed-adjusted z-score was inactive: 0.794.

Regarding ACAUCGACAUUGGAGCAUATT against DHCR24, the median seed-adjusted z-score is inactive: 0.493.

Take GGAUGUUCAUAUUCGGGUUTT against TUSC3: the median seed-adjusted z-score is inactive: 0.138.

In the case of CAACGACCUGAGUAGGUUUTT against ATP10A, the median seed-adjusted z-score is inactive: -0.435.

Regarding CCAUGUUCAGUUCCAAGGATT against CORO1A, the median seed-adjusted z-score is inactive: 0.569.

With GGCAGAGACUCCAAAGUAATT against SNX10, the median seed-adjusted z-score was inactive: 0.391.

For GGGUGUUAGGUAUCCAGGATT against USP26, the median seed-adjusted z-score was inactive: -0.0505.

Turning to AGCUUGGUAUACAACCUAATT against PSMAL, the median seed-adjusted z-score is inactive: 0.525.

With GUUUACCUCUGAGAUCUUUTT against TRMT2A, the median seed-adjusted z-score is inactive: -0.588.

With CGAAGGCACUAUCAAAGCATT against UPF1, the median seed-adjusted z-score is inactive: 0.253.

Regarding GCAAACCGGUUAAUCAAGATT against GGA2, the median seed-adjusted z-score was inactive: -0.142.

AGAUAUCCCAGAUACAUCATT against KRT2: the median seed-adjusted z-score was inactive: -0.451.

Regarding CAUCUAAUGUCAGUCCAUUTT against PRLR, the median seed-adjusted z-score was inactive: 0.394.

With CAGGCUUUGUUAGACGUAATT against ZNF157, the median seed-adjusted z-score is inactive: 0.137.

For the sequence UCCUCAACGUGUGCGAUGATT against KCNG1, the median seed-adjusted z-score was inactive: -0.00995.

As to GCUUUGAAAGUGUCAGUCATT against SHC1, the median seed-adjusted z-score was inactive: 0.0401.

As for GAAGGUUUAUUAUCGAGAATT against NID1, the median seed-adjusted z-score is inactive: 0.761.

On to GGCUGAUGCACAUACAGAATT against CATSPER3, for which the median seed-adjusted z-score was inactive: 0.685.

Turning to UCCUUGAUGUCACAAAGAATT against BDH2, the median seed-adjusted z-score is inactive: -0.242.

As for CCAUUGUCUUCCACCGAAATT against RAN, the median seed-adjusted z-score is active: -3.09.

GCAAGUGACUGCUAUCAAUTT against GRIA2: the median seed-adjusted z-score was active: -1.02.

For the sequence GCAAGCAGGUUAUCAACGATT against FLII, the median seed-adjusted z-score was inactive: -0.353.

As for CCAGGAACUAUGACACGUATT against RHBDD1, the median seed-adjusted z-score was inactive: 0.00277.

As to CCAUCGACAUUGAAACCUUTT against PITPNM2, the median seed-adjusted z-score is inactive: 0.275.

In the case of CCUCCAAUAUGAGCGGUUUTT against METTL7B, the median seed-adjusted z-score is inactive: 0.223.

For CCAGGUCCCUAAUCAUGGATT against NOXA1, the median seed-adjusted z-score was inactive: -0.441.

Regarding ACACUACACGAAUCCAACATT against ZNF280D, the median seed-adjusted z-score is inactive: 0.374.

For the sequence CCUCUUCCAUGUUUCGAAATT against YY1AP1, the median seed-adjusted z-score was inactive: 0.0453.

For GUUUCGAAAUGAACGUGCATT against ACACA, the median seed-adjusted z-score is inactive: 0.00665.

On to GGUCAUAUCAGGAUACCAATT against PCSK5, for which the median seed-adjusted z-score is inactive: -0.158.

As to CCUUUGUGGUGAGCGAGUATT against SFRS4, the median seed-adjusted z-score was inactive: 0.239.

As for AGGUCUGCGUGAAUCCCUATT against SMAD3, the median seed-adjusted z-score is inactive: -0.715.

Take GAUAUGCACCCAAUCGAAATT against B3GALT2: the median seed-adjusted z-score is inactive: 0.031.

On to GCAAUGAUCGAAAUCACUATT against GZMA, for which the median seed-adjusted z-score is inactive: -0.234.

For GCUUUUCGGGAAGAAGGUUTT against OPN1MW, the median seed-adjusted z-score is inactive: -0.369.

Consider CUAGUUUGUUGCAAAAUAATT against CDKN2C, for which the median seed-adjusted z-score was inactive: -0.0789.

For ACCUCUUCACUGAAAGUUATT against VENTX, the median seed-adjusted z-score was inactive: 0.669.

Turning to CCCAGGAUGUUUGCACAUATT against TSHB, the median seed-adjusted z-score was inactive: -0.247.

Regarding GGAUCGGAUAAAUAACAGUTT against HEY2, the median seed-adjusted z-score is inactive: -0.0831.

With GAGACCCACUUUUUCCGGATT against NKX6-1, the median seed-adjusted z-score is inactive: -0.0317.

GCUAAUCCAUUUGAUGACATT against PYGO1: the median seed-adjusted z-score is active: -1.23.

Turning to GCAACGUUCUGGUGCGGAATT against ADCK5, the median seed-adjusted z-score was inactive: 0.958.

For the sequence GGCUCAGAGUACAAGUACATT against FTSJ1, the median seed-adjusted z-score was inactive: 0.0774.

Take GCUUUGAGGAAAAUCCGAATT against SLC26A3: the median seed-adjusted z-score is inactive: -0.506.

As to CAACCUCUCUUUGAACCGUTT against FOXK1, the median seed-adjusted z-score is inactive: 0.63.

With CGUCGAAUUCCAAUCUUAUTT against ARL6, the median seed-adjusted z-score was inactive: 0.442.

In the case of UAAUUGACCUGACCAGUUUTT against SLC30A8, the median seed-adjusted z-score is inactive: -0.767.

For the sequence GAGAUUCAUCGGUUCAAUATT against WRNIP1, the median seed-adjusted z-score is inactive: 0.00972.

Turning to GCAUCUUUCUAGACCAUAUTT against TTBK2, the median seed-adjusted z-score was inactive: 0.423.

For the sequence GGAAUUCCGUAAAAGCAUUTT against HOXC13, the median seed-adjusted z-score was inactive: -0.318.

For the sequence GGUGGAACAUCAUAUCAAATT against DDX50, the median seed-adjusted z-score was inactive: 0.359.

As to GGAAGCUCACUUUAUGCUATT against PCDHGA10, the median seed-adjusted z-score was inactive: 0.0621.

For the sequence GAAUGCAGGUUGCAAAUAUTT against SPG7, the median seed-adjusted z-score was inactive: -0.293.

For GGUCAACGGCGAACUCAGATT against FAHD1, the median seed-adjusted z-score is inactive: -0.157.

As for CGGUACUACUAGUGAACUATT against APEH, the median seed-adjusted z-score was inactive: -0.0726.

For GACAUCCAGUUGUGAAUUUTT against GNL1, the median seed-adjusted z-score was inactive: 0.154.

With GAUUGGAAGUCGUCAACAATT against AFG3L2, the median seed-adjusted z-score is inactive: 0.117.

In the case of UGUCUGUUAUGAUGCGUUUTT against GJC1, the median seed-adjusted z-score was inactive: -0.0291.

Consider GCACAAACACUAUUAAAUUTT against PPAPDC1A, for which the median seed-adjusted z-score is inactive: 0.634.

In the case of CCAUUGAAGAGGCUAUGAATT against SPAG7, the median seed-adjusted z-score is inactive: 0.263.

Consider GGCUAUUAUUUGACUUGUUTT against CCL13, for which the median seed-adjusted z-score was inactive: 0.135.

Turning to CGAUGACCCUGACAGAUGUTT against NOD1, the median seed-adjusted z-score was inactive: 0.092.

As to CCCUAGUGAUGAUCUCGGATT against TRPV2, the median seed-adjusted z-score is inactive: -0.227.

Turning to CACCAGUGGUCUACACUAUTT against LRGUK, the median seed-adjusted z-score was inactive: 0.166.

On to GAGAUACUCCUGAGAAUAATT against NDUFV2, for which the median seed-adjusted z-score is inactive: -0.794.

For CGGAAAGAAAGGUACCCGATT against BRSK2, the median seed-adjusted z-score was inactive: -0.12.

As for AGCUUUACCUGUUCCACGATT against MRPS17, the median seed-adjusted z-score was inactive: -0.313.

For the sequence CAACGUGACUGUGAAGGCATT against ITGA3, the median seed-adjusted z-score is inactive: 0.

With CCUCCAUGUCCAACCCAUATT against FOSL2, the median seed-adjusted z-score is inactive: -0.372.

For the sequence CCAGGAAACGAAAACCUAATT against GATA6, the median seed-adjusted z-score is inactive: 0.546.

With CAGCUGUUGUUGAGCGAAUTT against CASP2, the median seed-adjusted z-score was inactive: 0.421.

With CACGUGGAGUAUUACACUATT against B4GALNT2, the median seed-adjusted z-score was inactive: -0.174.

Regarding GGACUUGUCAAAUACCAGUTT against SGOL2, the median seed-adjusted z-score was inactive: 0.114.

As to GGCAUGUCGGUUACAAGAATT against RRBP1, the median seed-adjusted z-score was inactive: -0.254.

Consider GUCCACAACUUGUAAGGCATT against SATB2, for which the median seed-adjusted z-score is inactive: -0.389.

With AGAUCAUGUUGCUCAAAAUTT against CNIH4, the median seed-adjusted z-score was inactive: -0.0718.

With GGAUUCUUGUUGGACUAAUTT against RHBDD1, the median seed-adjusted z-score is inactive: 0.00277.

Regarding AUAUCGAAUUGUUUCGCAATT against HTRA1, the median seed-adjusted z-score was inactive: 0.031.

In the case of CAUUGAACCUUGUAAUUCUTT against LIG4, the median seed-adjusted z-score is inactive: 0.576.

As to CACCAACCGCUGGUCCUUUTT against RAB40C, the median seed-adjusted z-score is inactive: -0.161.

As to GGAUUUGACCGACUGAUAUTT against SNRNP40, the median seed-adjusted z-score is inactive: 0.677.

In the case of CCAGCUUAAUGGACAUCUATT against ARSH, the median seed-adjusted z-score was inactive: -0.0414.

Consider CCUAAGUGCUUGCACCCUATT against HOXA7, for which the median seed-adjusted z-score was inactive: -0.129.

With GGGACCGAGAGAUCAGAUATT against PPAP2C, the median seed-adjusted z-score was active: -1.12.

Take CCCUGGUUCUGGCUACUGUTT against DLK2: the median seed-adjusted z-score was inactive: -0.695.

For GGCUCACACUGAGAAUGUATT against CALR, the median seed-adjusted z-score was inactive: -0.795.

GGAAGGCCCUGUGAAGAAATT against PNPO: the median seed-adjusted z-score was inactive: -0.0845.

For GUAUUAAGCUCAUCAUGGATT against JAK1, the median seed-adjusted z-score is inactive: 0.0199.

Regarding AGCUAUUGGUGGGCCGUCATT against KCNG2, the median seed-adjusted z-score was inactive: 0.

As for CAUCCAGUCUGACGACAAATT against UQCRC2, the median seed-adjusted z-score is inactive: -0.848.

As for AGACCAUUGUGACAGCUGUTT against SLC6A7, the median seed-adjusted z-score was inactive: 0.00508.

Regarding GGAGUAACAGUACAUCUAUTT against PHC3, the median seed-adjusted z-score was inactive: -0.204.

In the case of GUAUUUCCCGUGACUCGUATT against TAF5, the median seed-adjusted z-score is inactive: -0.192.

With ACCUGAGUGUGAACCUCUATT against GDPD5, the median seed-adjusted z-score is inactive: -0.0618.

On to GAAUGUACAGUGAUCGGAATT against UTRN, for which the median seed-adjusted z-score was inactive: 0.909.

For CAGACAGUGGAGUACCUCATT against LARP7, the median seed-adjusted z-score was inactive: -0.483.

For GCAUACUUCUGUGAGAACATT against TNFRSF13B, the median seed-adjusted z-score is inactive: 0.152.

Turning to CAGUGAUAGGAACACCAUUTT against STK4, the median seed-adjusted z-score was inactive: 0.652.

As to GCACUAAGAUUGAUUGGAATT against CAPZA2, the median seed-adjusted z-score is inactive: 0.

For the sequence CCAUGGAUGAAAAUUCGAATT against ACADSB, the median seed-adjusted z-score is inactive: -0.436.

Consider AGCGCAAAGUGAACAAGAATT against CDX1, for which the median seed-adjusted z-score is inactive: 0.

These data come from PubChem BioAssay AID1347426 (Functional Genomics Laboratory (NCATS/FGL), 2020).
